Reference: the supplement of paper PMC12819154, “High-throughput peptide-centric local stability assay extends protein–ligand identification to membrane proteins, tissues and bacteria” (Nature Structural & Molecular Biology, 2025)
The list shows a part of the results. Most entries show no effect beyond the scatter of the controls.

Amino acid sequences for entries named in this document (tags omitted). A change or cut given only in a name is not applied to a line headed by its entry.
UniProt Q8NB78: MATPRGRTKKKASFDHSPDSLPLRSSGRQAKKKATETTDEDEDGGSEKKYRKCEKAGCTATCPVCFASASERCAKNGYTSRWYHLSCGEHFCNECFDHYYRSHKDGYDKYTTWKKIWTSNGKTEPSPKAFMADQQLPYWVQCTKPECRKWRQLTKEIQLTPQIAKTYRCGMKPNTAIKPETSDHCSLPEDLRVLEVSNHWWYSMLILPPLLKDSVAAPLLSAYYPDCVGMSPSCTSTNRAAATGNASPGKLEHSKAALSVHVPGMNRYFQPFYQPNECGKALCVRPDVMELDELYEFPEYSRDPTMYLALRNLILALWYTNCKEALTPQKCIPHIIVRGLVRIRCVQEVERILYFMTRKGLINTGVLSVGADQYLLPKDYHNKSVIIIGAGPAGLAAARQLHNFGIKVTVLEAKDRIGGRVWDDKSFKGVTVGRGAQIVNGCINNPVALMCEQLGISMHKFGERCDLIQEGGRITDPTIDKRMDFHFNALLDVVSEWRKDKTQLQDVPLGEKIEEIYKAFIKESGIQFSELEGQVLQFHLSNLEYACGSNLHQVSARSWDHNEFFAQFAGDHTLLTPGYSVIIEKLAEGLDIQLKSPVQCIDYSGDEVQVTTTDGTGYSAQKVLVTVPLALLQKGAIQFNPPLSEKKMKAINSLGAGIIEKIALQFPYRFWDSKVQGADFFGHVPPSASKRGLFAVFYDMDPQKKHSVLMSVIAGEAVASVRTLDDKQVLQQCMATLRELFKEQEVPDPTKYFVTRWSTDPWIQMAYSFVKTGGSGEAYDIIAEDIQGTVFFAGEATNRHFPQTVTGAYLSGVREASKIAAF
UniProt Q8NF99: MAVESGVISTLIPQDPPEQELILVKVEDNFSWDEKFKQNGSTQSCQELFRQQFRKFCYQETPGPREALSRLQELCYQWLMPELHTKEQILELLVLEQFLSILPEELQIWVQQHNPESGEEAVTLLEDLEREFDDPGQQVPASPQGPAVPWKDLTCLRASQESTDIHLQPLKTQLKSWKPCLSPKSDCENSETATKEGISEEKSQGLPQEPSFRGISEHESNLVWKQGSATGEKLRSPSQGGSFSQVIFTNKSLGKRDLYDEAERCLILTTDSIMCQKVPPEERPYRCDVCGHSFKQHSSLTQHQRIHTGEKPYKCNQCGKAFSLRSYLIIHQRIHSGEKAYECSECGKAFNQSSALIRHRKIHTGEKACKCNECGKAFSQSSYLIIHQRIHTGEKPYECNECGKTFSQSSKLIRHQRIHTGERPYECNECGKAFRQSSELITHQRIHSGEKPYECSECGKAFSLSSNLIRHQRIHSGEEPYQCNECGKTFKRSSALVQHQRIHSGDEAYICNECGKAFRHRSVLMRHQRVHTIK
UniProt Q8NAP3: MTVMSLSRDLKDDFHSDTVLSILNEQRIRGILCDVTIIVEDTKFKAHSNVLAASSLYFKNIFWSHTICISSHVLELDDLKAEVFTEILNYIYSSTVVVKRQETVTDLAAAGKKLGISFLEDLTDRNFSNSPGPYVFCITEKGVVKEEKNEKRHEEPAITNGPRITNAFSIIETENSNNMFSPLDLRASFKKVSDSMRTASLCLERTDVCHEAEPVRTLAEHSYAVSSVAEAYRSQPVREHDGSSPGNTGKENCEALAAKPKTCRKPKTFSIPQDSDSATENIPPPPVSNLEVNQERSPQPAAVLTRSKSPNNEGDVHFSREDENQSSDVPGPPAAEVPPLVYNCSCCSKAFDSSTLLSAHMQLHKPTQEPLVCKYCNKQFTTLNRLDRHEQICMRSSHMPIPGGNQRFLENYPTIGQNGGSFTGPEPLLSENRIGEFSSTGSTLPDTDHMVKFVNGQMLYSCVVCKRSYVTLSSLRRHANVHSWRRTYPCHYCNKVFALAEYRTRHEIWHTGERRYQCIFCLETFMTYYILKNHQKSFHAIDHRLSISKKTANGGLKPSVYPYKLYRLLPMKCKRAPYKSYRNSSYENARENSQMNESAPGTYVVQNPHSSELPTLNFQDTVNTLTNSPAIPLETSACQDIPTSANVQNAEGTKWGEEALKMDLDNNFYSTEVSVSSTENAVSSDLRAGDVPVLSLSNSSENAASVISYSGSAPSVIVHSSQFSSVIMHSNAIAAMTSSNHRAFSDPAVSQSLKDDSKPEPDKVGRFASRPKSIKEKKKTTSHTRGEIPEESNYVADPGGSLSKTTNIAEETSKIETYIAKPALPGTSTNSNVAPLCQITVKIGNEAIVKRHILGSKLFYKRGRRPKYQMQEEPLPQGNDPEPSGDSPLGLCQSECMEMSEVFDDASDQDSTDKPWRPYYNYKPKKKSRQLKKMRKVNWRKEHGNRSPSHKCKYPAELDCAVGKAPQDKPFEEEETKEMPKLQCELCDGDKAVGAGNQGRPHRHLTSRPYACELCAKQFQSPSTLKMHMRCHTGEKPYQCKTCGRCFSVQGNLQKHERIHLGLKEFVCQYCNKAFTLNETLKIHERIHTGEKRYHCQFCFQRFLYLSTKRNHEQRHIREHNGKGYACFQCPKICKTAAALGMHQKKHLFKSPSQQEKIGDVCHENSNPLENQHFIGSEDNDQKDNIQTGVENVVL
UniProt Q8NBM4: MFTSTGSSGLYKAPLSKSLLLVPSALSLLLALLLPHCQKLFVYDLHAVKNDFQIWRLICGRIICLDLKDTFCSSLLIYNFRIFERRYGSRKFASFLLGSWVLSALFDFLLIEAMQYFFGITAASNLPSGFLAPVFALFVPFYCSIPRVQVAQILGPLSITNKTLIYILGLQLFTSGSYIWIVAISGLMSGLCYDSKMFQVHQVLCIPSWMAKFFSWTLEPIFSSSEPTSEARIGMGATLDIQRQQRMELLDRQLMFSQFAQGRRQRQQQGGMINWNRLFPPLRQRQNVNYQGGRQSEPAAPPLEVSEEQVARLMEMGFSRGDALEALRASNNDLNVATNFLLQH
UniProt Q8NCK3: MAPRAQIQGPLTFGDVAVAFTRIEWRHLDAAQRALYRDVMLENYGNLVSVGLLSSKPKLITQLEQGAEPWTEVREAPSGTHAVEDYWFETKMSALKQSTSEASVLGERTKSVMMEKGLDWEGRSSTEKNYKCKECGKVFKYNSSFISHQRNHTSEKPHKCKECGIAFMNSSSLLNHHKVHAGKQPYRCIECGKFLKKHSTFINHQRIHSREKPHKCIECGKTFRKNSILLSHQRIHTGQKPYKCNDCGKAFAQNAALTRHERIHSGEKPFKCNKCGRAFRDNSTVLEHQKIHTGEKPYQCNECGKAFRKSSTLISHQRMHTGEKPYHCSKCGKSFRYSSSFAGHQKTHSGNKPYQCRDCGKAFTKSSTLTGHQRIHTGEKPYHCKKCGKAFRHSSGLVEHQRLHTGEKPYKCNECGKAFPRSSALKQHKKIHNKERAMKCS
UniProt Q8N5S9: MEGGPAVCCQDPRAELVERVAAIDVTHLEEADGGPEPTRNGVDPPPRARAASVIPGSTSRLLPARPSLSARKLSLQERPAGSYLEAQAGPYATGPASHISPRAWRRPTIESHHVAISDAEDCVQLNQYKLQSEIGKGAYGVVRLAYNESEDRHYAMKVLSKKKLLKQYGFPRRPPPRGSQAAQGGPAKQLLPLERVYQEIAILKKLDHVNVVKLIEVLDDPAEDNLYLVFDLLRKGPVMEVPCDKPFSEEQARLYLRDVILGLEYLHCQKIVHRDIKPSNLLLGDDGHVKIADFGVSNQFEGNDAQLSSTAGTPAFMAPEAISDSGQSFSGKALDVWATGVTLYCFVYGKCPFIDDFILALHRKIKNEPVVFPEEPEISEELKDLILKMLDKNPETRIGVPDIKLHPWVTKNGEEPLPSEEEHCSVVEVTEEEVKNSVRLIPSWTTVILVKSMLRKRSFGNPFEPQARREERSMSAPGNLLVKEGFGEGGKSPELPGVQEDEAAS
UniProt Q8N4S0: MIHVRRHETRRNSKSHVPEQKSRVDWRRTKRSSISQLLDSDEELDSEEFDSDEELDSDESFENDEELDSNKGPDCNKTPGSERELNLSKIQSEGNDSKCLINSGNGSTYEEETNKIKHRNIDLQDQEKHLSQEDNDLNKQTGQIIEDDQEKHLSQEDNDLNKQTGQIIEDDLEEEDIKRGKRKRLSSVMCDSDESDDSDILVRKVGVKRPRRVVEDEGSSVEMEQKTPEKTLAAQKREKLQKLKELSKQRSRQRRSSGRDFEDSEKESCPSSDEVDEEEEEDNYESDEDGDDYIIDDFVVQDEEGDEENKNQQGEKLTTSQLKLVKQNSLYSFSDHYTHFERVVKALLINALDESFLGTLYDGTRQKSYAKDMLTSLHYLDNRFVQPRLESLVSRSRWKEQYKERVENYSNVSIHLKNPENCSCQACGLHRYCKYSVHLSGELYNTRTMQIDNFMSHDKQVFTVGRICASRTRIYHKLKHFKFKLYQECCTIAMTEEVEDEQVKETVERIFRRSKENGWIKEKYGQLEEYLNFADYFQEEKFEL
UniProt Q8NFQ8: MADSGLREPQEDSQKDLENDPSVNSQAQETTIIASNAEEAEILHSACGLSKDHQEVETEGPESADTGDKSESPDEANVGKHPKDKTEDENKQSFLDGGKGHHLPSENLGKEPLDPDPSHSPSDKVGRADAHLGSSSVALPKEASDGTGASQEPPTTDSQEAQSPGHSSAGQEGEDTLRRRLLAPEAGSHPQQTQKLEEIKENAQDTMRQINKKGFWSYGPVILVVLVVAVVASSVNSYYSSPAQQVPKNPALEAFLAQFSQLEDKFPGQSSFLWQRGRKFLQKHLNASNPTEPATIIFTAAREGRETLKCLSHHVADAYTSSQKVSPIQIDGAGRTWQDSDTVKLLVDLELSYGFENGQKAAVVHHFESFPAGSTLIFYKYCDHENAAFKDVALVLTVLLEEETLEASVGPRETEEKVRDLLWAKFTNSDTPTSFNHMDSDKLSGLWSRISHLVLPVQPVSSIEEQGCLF
UniProt Q8NFJ9: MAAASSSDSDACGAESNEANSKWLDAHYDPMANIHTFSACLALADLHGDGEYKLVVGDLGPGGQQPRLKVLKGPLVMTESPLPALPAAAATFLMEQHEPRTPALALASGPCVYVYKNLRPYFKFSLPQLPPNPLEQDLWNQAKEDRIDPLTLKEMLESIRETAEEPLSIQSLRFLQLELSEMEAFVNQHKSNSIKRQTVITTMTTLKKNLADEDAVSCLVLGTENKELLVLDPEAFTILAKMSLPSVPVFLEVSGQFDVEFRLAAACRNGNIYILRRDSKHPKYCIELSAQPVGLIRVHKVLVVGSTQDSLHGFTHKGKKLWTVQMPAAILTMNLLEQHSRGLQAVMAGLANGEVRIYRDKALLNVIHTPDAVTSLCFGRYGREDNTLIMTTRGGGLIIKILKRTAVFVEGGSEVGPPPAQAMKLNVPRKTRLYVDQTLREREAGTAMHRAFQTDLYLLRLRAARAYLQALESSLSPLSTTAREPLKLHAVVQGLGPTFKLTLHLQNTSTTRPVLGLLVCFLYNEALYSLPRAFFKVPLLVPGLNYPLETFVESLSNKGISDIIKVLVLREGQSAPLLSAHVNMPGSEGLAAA
UniProt Q8N9L1: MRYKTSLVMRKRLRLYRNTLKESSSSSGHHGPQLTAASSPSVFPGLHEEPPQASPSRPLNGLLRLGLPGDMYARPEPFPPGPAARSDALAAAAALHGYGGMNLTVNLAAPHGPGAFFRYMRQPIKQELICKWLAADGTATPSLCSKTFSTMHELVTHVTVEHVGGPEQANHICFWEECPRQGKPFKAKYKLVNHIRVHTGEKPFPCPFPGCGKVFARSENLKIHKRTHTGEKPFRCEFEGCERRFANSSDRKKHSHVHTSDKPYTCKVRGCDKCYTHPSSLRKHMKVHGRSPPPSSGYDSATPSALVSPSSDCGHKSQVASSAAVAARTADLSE
UniProt Q8NG48: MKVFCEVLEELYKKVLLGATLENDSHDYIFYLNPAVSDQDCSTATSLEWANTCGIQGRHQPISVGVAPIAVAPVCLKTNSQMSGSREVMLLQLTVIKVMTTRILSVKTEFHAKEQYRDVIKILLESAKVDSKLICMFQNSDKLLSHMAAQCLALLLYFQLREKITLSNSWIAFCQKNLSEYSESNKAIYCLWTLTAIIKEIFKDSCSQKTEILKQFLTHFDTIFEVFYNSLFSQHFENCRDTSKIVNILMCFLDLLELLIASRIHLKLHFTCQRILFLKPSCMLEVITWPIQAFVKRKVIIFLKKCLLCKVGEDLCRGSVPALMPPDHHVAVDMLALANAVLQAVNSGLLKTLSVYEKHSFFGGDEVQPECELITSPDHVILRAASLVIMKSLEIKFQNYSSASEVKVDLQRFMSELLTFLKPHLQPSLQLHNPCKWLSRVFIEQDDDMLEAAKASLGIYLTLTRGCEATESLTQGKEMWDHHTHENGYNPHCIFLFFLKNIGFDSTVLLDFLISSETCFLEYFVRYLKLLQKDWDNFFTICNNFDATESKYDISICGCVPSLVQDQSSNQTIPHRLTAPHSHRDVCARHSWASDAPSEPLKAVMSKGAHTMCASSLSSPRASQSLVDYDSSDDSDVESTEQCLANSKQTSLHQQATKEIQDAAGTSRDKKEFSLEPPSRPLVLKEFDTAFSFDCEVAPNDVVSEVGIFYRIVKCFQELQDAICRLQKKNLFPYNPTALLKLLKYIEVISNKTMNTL

These targets were tested with Cc1nc(Nc2ncc(C(=O)Nc3c(C)cccc3Cl)s2)cc(N2CCN(CCO)CC2)n1 [dasatinib] (assay: log2 fold change of tryptic peptide abundance, ligand vs vehicle (limited proteolysis) (log2 ratio); higher = more trypsin-susceptible (destabilized)). Conditions: ligand concentration: 5 uM; sample: K562 cleared lysate.
“UniProt Q8NB78 (peptide sequence: EIQLTPQIAK, peptide start residue: 156)” showed a log2 fold change of -0.306.
“UniProt Q8NF99 (peptide sequence: SQGLPQEPSFR, peptide start residue: 203)” showed a log2 fold change of 0.0205.
For “UniProt Q8N8J0 (peptide sequence: EFDFFNK, peptide start residue: 1734)”, the log2 fold change was -0.179.
With “UniProt Q8NAP3 (peptide sequence: TLAEHSYAVSSVAEAYR, peptide start residue: 217)” the log2 fold change was 0.371.
Target “FBH1 (peptide sequence: TVENIVLPR, peptide start residue: 1026) (UniProt Q8NFZ0)” has a log2 fold change of 0.188.
“TTC9C (peptide sequence: HYLLAAVNRQPK, peptide start residue: 129) (UniProt Q8N5M4)” gave a log2 fold change of -0.241.
Target “ZMIZ2 (peptide sequence: EEPDGPALKR, peptide start residue: 693) (UniProt Q8NF64)” has a log2 fold change of 0.302.
“FLCN (peptide sequence: KSDMCEGCR, peptide start residue: 78) (UniProt Q8NFG4)” was tested, and the log2 fold change was -0.544.
“UBAC2 (peptide sequence: QLMFSQFAQGR, peptide start residue: 253) (UniProt Q8NBM4)” showed a log2 fold change of 0.121.
With “AGBL5 (peptide sequence: ANNLQNEAQCGHSADR, peptide start residue: 368) (UniProt Q8NDL9)” the log2 fold change was 0.152.
“ZNF485 (peptide sequence: EAPSGTHAVEDYWFETK, peptide start residue: 75) (UniProt Q8NCK3)” showed a log2 fold change of 0.216.
For “POC5 (peptide sequence: NDAGIDSTNNKK, peptide start residue: 374) (UniProt Q8NA72)”, the log2 fold change was 0.909.
Target “KLHL36 (peptide sequence: QVLENIHFPLIPK, peptide start residue: 230) (UniProt Q8N4N3)” has a log2 fold change of 0.329.
With “CAMKK1 (peptide sequence: MLDKNPETR, peptide start residue: 389) (UniProt Q8N5S9)” the log2 fold change was -0.767.
Target “IPMK (peptide sequence: VEAPGPPEMR, peptide start residue: 11) (UniProt Q8NFU5)” has a log2 fold change of -0.0914.
Work on “CCDC82 (peptide sequence: TMQIDNFMSHDK, peptide start residue: 448) (UniProt Q8N4S0)” yielded a log2 fold change of 0.329.
“MOSPD2 (peptide sequence: KINPTESTSK, peptide start residue: 293) (UniProt Q8NHP6)” showed a log2 fold change of -0.308.
“TOR1AIP2 (peptide sequence: ADAHLGSSSVALPK, peptide start residue: 128) (UniProt Q8NFQ8)” was tested, and the log2 fold change was -0.146.
“UniProt Q8NFJ9 (peptide sequence: GGGLIIK, peptide start residue: 394)” gave a log2 fold change of -0.103.
For “ZFP62 (peptide sequence: SFSYNSLLLQHR, peptide start residue: 429) (UniProt Q8NB50)”, the log2 fold change was 0.319.
In the case of “UniProt Q8N9L1 (peptide sequence: THTGEKPFR, peptide start residue: 852)”, the log2 fold change is reported as 0.0759.
“ZNRF2 (peptide sequence: SLGGAVGSVASGAR, peptide start residue: 82) (UniProt Q8NHG8)” gave a log2 fold change of -0.0711.
Target “UniProt Q8N5H3 (peptide sequence: HAAGAANAGPAAGPR, peptide start residue: 67)” has a log2 fold change of -0.43.
With “HJURP (peptide sequence: YQTEGFLGK, peptide start residue: 618) (UniProt Q8NCD3)” the log2 fold change was -0.125.
For “PSD4 (peptide sequence: EAGEAPKPGEEVK, peptide start residue: 507) (UniProt Q8NDX1)”, the log2 fold change was 0.176.
“LINS1 (peptide sequence: EIQDAAGTSR, peptide start residue: 659) (UniProt Q8NG48)” gave a log2 fold change of -0.448.
“HDDC3 (peptide sequence: RLQVEQAPHSSPGAK, peptide start residue: 102) (UniProt Q8N4P3)” gave a log2 fold change of 0.347.
In the case of “DCAF4L2 (peptide sequence: LLEEADKQKK, peptide start residue: 8) (UniProt Q8NA75)”, the log2 fold change is reported as 0.689.
“PPFIBP2 (peptide sequence: LSGATPNGEAAK, peptide start residue: 429) (UniProt Q8ND30)” was tested, and the log2 fold change was 0.0936.
